## Library screen at single concentrations

The chains behind the UniProt entries cited, without tags or fusion partners. Residues count along the entry.
UniProt Q4DA54, 1-478: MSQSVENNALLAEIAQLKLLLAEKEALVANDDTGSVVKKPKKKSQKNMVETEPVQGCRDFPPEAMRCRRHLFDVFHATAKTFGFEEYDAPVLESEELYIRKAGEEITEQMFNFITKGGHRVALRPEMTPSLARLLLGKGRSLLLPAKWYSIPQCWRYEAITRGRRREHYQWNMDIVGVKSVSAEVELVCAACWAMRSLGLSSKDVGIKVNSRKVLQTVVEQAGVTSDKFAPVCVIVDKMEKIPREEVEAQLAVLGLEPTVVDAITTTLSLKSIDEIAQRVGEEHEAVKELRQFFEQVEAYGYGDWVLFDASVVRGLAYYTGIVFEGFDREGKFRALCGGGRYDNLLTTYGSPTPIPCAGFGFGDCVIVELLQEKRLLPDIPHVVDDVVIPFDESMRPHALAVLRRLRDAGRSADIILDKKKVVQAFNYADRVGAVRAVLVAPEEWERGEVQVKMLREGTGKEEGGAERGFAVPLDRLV
UniProt A4I591, 1-473: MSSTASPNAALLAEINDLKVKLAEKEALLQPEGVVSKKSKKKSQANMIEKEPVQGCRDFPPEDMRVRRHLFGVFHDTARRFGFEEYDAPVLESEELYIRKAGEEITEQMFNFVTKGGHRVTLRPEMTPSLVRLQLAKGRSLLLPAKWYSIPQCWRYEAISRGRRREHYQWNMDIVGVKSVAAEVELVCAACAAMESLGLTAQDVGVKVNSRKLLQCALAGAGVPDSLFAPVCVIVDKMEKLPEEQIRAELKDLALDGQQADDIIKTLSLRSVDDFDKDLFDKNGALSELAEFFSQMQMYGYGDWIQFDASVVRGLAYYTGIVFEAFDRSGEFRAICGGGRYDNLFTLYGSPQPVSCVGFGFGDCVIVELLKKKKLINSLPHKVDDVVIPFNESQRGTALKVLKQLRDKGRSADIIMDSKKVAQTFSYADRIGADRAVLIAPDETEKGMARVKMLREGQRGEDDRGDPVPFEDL

Source: ChEMBL document CHEMBL3988442, “University of Dundee, Small-Polar-MMV Screening Library” (2021).

T. brucei: 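Whole-parasite assay of Trypanosoma brucei over 72 hours; the read-out is not stated. Concentration: 30 µM. Higher reads as stronger inhibition (inferred: compounds with an IC50 in retests scored well above the rest). Values scatter widely below zero; nearly all retest evidence comes from the higher of the two concentrations used. About 64,000 compounds were tested under these conditions; 1.5% (about 940) showed 50% or more at least once.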
TcHisRS: 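Histidine-tRNA ligase, Trypanosoma cruzi CL Brener (UniProt Q4DA54). Enzyme assay of histidyl-tRNA synthetase; the read-out is not stated. Tested at 30 µM. The record gives no direction; compounds that gave an IC50 in retests scored well above the rest, so higher reads as stronger inhibition. Size under these conditions: about 69,000 compounds, about 31 of them at 50% or above in at least one test.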
LiHisRS: 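Histidine-tRNA ligase, Leishmania infantum (UniProt A4I591). Enzyme assay of histidyl-tRNA synthetase; the read-out is not stated. Concentration: 30 µM. The record gives no direction; compounds that gave an IC50 in retests scored well above the rest, so higher reads as stronger inhibition. The assay is labelled LdHisRS but filed under L. infantum. Of about 69,000 compounds tested this way, about 410 (0.6%) reached 50% or more in at least one test.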

Results are given as percent effect.
How 0% and 100% were set is not recorded. Most values in the screen are low, and negative values occur.
This is an unselected part of the compounds tested.
A dash means the value is not listed here; it may have been measured.

| compound | T. brucei | TcHisRS | LiHisRS |
|---|---|---|---|
| `Cc1ccc2c(n1)N(CC(C)C)CCN(S(C)(=O)=O)C2` | - | 4.202 | -0.9174 |
| `NC(=O)CN1CCCN(C(=O)CCOc2ccccc2Cl)CC1` | - | 2.857 | 15.25 |
| `CC(=O)N1CCC(NC(=O)c2ccccc2-n2cnnn2)CC1` | 0.05206 | -2.174 | 24.24 |
| `COCC1CN(C(=O)Nc2ccc(Cl)cc2Cl)CCO1` (stereo not given) | 6.467 | 3.448 | 4.386 |
| `COc1ccccc1CN1CCCCC1c1n[nH]cc1-c1cc(C)no1.Cl` (stereo not given) | 99.66 | - | - |
| `N#Cc1ccc(N2CCN(c3cnccn3)CC2)c(C(F)(F)F)c1` | -43.67 | 7.843 | 17.65 |
| `CC[C@H](C)Nc1nccc(-c2cnc3sc(C)c(C)n3c2=O)n1` | -19.09 | 1.887 | -31.08 |
| `COc1cccc(CN2CCCC3(CCN(C(=O)N4CCCC4)C3)C2)c1.O=C(O)C(F)(F)F` (stereo not given) | -29.29 | - | - |
| `COc1ccc(CN2C[C@H]3CN(C(=O)c4ccno4)CCN3C2=O)cc1` | - | 8.911 | 22.22 |
| `O=C(Nc1cc(Cl)ccn1)c1nc(N2CCCC2)ncc1Cl` | -5.157 | -3.261 | 12.12 |
| `CC(NC(=O)NCCS(C)(=O)=O)c1ccc2c(c1)CCC(=O)N2` (stereo not given) | - | 4 | 1.923 |
| `O=C(O)C(F)(F)F.O=C(O)C(F)(F)F.[H][C@@]12CCN(c3nncs3)C[C@@]1([H])O[C@@H](C(=O)Nc1cccnc1)C2` | -4.569 | - | - |
| `O=C(NCCC1CN(C2CCCC2)CCO1)c1c[nH]c(=O)[nH]c1=O` (stereo not given) | -1.995 | 11.06 | 27.06 |
| `Cc1nc(C(F)(F)F)nc(N2CCC(O)(C(=O)O)CC2)c1C` | 0.5006 | 3.59 | 12.7 |
| `O=C(Nc1cccnc1)[C@H]1CN(Cc2ccco2)C[C@H]2OCC[C@@H]12` | - | 4.124 | 24 |
| `OCC(O)CSCc1ccc(F)cc1Cl` (stereo not given) | -3.825 | -0.6452 | 15.15 |
| `CC(C(=O)NCc1cccc(N2CCCC2=O)c1)S(C)(=O)=O` (stereo not given) | -6.878 | 2.521 | -1.653 |
| `CCCS(=O)(=O)N1CCC(Oc2ccc(C#N)cc2)CC1` | - | 0.8772 | 8.85 |
| `COC(=O)c1ccc(C(=O)NCC2(O)CCOCC2)cc1` | 1.516 | 13.57 | 8.989 |
| `c1ccc(-c2nnc(N3CCCC4(CCOC4)C3)s2)cc1` (stereo not given) | -51.78 | 5.82 | 14.71 |
| `c1csc(-c2nc(CN3CCOC(Cn4cncn4)C3)co2)c1` (stereo not given) | -14.48 | 7.519 | 14.29 |
| `CC1CCN(C(=O)c2cnn3c(-c4ccco4)ccnc23)CC1` | 0.8479 | 3.982 | 22.12 |
| `O=C(CCOCc1ccccc1)N1CCCC1c1noc(C2CC2)n1` (stereo not given) | -2.091 | 3.759 | 2.381 |
| `Cc1cnc(N2CCC3(CC2)CC3CN(C)Cc2cccnc2)nc1.O=C(O)C(F)(F)F.O=C(O)C(F)(F)F` (stereo not given) | -44.25 | - | - |
| `C[C@H]1CN(c2ccccn2)C[C@@]12CCN(Cc1cccnc1)C2=O` | - | 0 | 3.774 |
| `O=C(NCc1ccc2c(c1)OCO2)c1ccccc1C1CCNC1` (stereo not given) | 75.73 | -1.22 | 27.71 |
| `Cc1nnc2n1CCN(C(=O)c1cc(Br)c(Cl)[nH]1)C2` | - | 14.12 | 23.85 |
| `O=C(NCc1ccccc1)c1nc2c(o1)CN(C(=O)c1cccnc1)C2` | - | 1.97 | 8.824 |
| `CCOc1ccccc1C(=O)NCc1nncn1C1CC1` | -12.95 | 0.5525 | 8.29 |
| `COc1ccccc1-c1noc(CN2CCCC2Cn2cccn2)n1` (stereo not given) | -7.675 | 1.132 | 14.86 |
| `Cc1n[nH]c(C)c1CCNC(=O)Nc1ccc2c(c1)COC2` | -52.54 | 6.667 | 11.11 |
| `CCOc1ccc(C(F)(F)F)cc1NC(=O)NCc1noc(C)n1` | 6.29 | 5.603 | 13.92 |
| `CNC(=O)c1nc(CN2CCOC(Cc3ccc(F)cc3)C2)no1` (stereo not given) | -55.28 | 1.657 | 12.68 |
| `CC(C)Cc1cc(C(=O)NCCN2CCCS2(=O)=O)[nH]n1` | - | 2.353 | 16.51 |
| `CCN1CC2(CCC1=O)CCN(C(=O)c1cn3cccnc3n1)CC2` | -60.16 | 3.659 | 18.07 |
| `CNC(=O)NC(=O)CNc1cc(C(=O)OC)cc(C(F)(F)F)c1` | 5.397 | 1.622 | 24.66 |
| `COc1ccc(-n2ncc3c2NC(=O)CSC3C(C)C)cc1` (stereo not given) | -28.59 | 4.95 | 17.39 |
| `COc1cccc2c1OCC(CNC(=O)CSc1nc(N)n[nH]1)C2` (stereo not given) | 1.524 | 0.8475 | 24.53 |
| `Cn1cc(C2CCCN2C(=O)CCn2ccc3ccccc32)cn1` (stereo not given) | -38.07 | 4.712 | 13.79 |
| `CC(O)CN1CCN(C(=O)c2ccc(Cn3cccn3)cc2)CC1` (stereo not given) | 5.654 | 3.008 | 47.62 |
| `CCN(CC(=O)NC)C(=O)Cc1csc(C(C)C)n1` | -25.08 | 9.392 | 7.042 |
| `CCc1ccc(CNC(=O)N2CCN(Cc3cc(C)on3)CC2)s1` | -7.04 | 1.153 | 7.143 |
| `CN(CC(=O)N1CCCC1Cn1cccn1)Cc1ccccc1` (stereo not given) | - | 1.714 | 5.085 |
| `Cn1nnc2c1CCN(CC1CC1)C2COCc1ccccc1.O=C(O)C(F)(F)F` (stereo not given) | 17.54 | - | - |
| `O=C(COCc1nc(-c2ccncc2)no1)N1CCOCC1` | - | 0.8772 | 15.93 |
| `Clc1ccc2oc(C3CCN(Cc4nc(C5CC5)no4)CC3)nc2c1` | 0.1767 | 8.205 | 16.33 |
| `O=C(O)C(F)(F)F.[H][C@@]12COC[C@]1(C(=O)NC1CC(F)(F)C1)CN(Cc1ccccc1)C2` | -35.11 | - | - |
| `CS(=O)(=O)c1ccc(NC(=O)NC2(c3cccc(F)c3)CC2)cc1` | - | 6.25 | 4.167 |
| `O=C(NCCc1cnccn1)c1ccc(S(=O)(=O)NC2CCC2)cc1` | -70.81 | -0.4292 | 9.836 |
| `CCOCC1CN(CCOCc2ccccc2)Cc2c1cnn2C` (stereo not given) | -79.88 | 8.696 | 27.63 |
| `CC(=O)NCc1noc2c1CN(Cc1cccs1)CC2` | -47.72 | 2.454 | 15.38 |
| `CCn1nc(C)c(CCN2CC3(CCOC3)CCC2=O)c1C` (stereo not given) | -11.13 | 8.333 | 12.4 |
| `CCOCCOC(C)C(=O)Nc1ccc2ccn(CCN(C)C)c2c1` (stereo not given) | 15.55 | 1.053 | 5.479 |
| `Cc1cc(C(=O)N2CCc3c(ncn3CCc3ccccc3)C2)on1` | 1.785 | -2.89 | 6.667 |
| `CC(=O)N(C)C1CCN(C(=O)c2cccc3c2ccn3C)CC1` | 1.635 | 6 | 17.81 |
| `O=C(O)C(F)(F)F.O=C(O)C(F)(F)F.[H][C@@]12CN(Cc3ccco3)C[C@H](C(=O)Nc3cccnc3)[C@]1([H])CCO2` | -22.58 | - | - |
| `Cc1ncsc1CCn1ccnc1-c1cc2n(n1)CCCNC2` | -203.4 | -1.093 | 19.3 |
| `Cc1nonc1CNC(=O)C(C)Oc1ccccc1F` (stereo not given) | 11.08 | 1.695 | 9.79 |